These are yes or no findings as the source states them, for the method shown. For some of these results: In cells and extracts the contact can be indirect. Some binding calls cover weakened binding; strength is not graded here. Tags and fused reporters may be left off the sequences shown. Each block holds one binder with its values, some of them ahead of it.
How the values were obtained:
GFP-Snapin = biological target: T1, GFP-Snapin (UniProt O95295); test: co-IP
T1 sequence: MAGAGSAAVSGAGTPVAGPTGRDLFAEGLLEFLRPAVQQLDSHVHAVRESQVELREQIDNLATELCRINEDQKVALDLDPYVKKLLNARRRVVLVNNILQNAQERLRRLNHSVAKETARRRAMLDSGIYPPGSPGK

Protein sequences, listed by entry. Tags and fused reporters are not part of them. Residues count along the entry.
UniProt Q63604, residues 454-821: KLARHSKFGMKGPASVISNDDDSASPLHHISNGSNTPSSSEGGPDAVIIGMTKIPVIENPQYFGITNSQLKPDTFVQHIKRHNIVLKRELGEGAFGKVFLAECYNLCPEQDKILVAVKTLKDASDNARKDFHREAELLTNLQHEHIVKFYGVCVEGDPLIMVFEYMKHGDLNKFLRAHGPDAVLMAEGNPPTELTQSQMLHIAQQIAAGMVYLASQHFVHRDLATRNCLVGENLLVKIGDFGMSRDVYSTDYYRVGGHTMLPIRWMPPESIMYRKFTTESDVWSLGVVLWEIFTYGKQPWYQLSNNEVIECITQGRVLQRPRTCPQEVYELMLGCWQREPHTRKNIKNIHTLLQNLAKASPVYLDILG

MBP-TrkB-454-821 (rat) = MBP-TrkB-454-821 (rat) (UniProt Q63604); test: pull-down

B2: PDZ-SIPA1L2-tRFP (domain or fragment, UniProt Q5JCS6 948-1025)
chain: ETVEMTLRRNGLGQLGFHVNFEGIVADVEPFGFAWKAGLRQGSRLVEICKVAVATLTHEQMIDLLRTSVTVKVVIIQP
binding (GFP-Snapin): binds

B4: GST-ActII-SIPA1L2-1026-1650 (domain or fragment, UniProt Q5JCS6 1026-1650)
chain: HEDGSPRRGCSELCRIPMVEYKLDSEGTPCEYKTPFRRNTTWHRVPTPALQPVSRASPVPGTPDRLQCQPLLQQAQAAIPRSTSFDRKLPDGTRSSPSNQSSSSDPGPGGSGPWRPQVGYDGCPSPLLLEPQGPGSVECDGSGDHEDLMEVGRLPETKWHGPPSKVLSSYKERALQKDGSCKDSPNKLSHIGDKSCSSHSSSNTLSSNTSSNSDDKHFGSGDLMDPELLGLTYIKGASTDSGIDTTPCMPATILGPMHLTGSRSLIHSRAEQWADAADVSGADEDPAKMYTLHGYASAISSSAADGSMGDLSEVSSHSSGSHRSGSPSTHCSKSTGSLDSSKVYIVTHSGGQQVPGAVAKPYHRQGAANKYVIGWKKSEGSPPPEEPEVTECPRIYGEMDIMSTASQHPAVVGDSVPEAQHVLSKDDFLKLMLPDSPLVEEGRRKFSFYGNLSPRRSLYRTLSDESVCSNRRGSSFASSRSSILDQALPNDILFSTTPPYHSTLPPRTHPAPSMGSLRNEFWFSDGSLSDKSKCADPGLMPLPDTAAGLDWSHLVDAARAFEGLDSDEELGLLCHHASYLDQRVASFCTLTDLQHGQELEGAPELSLCVDPTSGKEFMDTPGERS
binding (MBP-TrkB-454-821 (rat)): no binding (tested: 2 µg)

Results, then the binder that gave them:

binding (GFP-Snapin): binds
B1: RapGAP domain of SIPA1L2 (aa 624-813), expressed in HEK293T (domain or fragment, UniProt Q5JCS6 624-813)
chain: EMYNNETAGPAFEEFLDLLGQRVRLKGFSKYRAQLDNKTDSTGTHSLYTTYKDFELMFHVSTLLPYMPNNRQQLLRKRHIGNDIVTIVFQEPGALPFTPKNIRSHFQHVFVIVKVHNPCTENVCYSVGVFRSKDVPPFVPPIPKGVTFPRTGVFRDFLLAKGINAENAAHKSEKFRAMATRTRHEYLKDL

binding (GFP-Snapin): binds
B3: SIPA1L2-470-838-tRFP (domain or fragment, UniProt Q5JCS6 470-838)
chain: REKVKRYIIEHVDLGAYYYRKFFYGKEHQNYFGIDENLGPVAVSIRREKVEDPREKEGSQFNYRVAFRTSELTTLRGAILEDAVPSTARHGTARGLPLKEVLEYVIPELSIPCLRQAANSPKVPEQLLKLDEQGLSFQHKIGILYCKAGQSTEEEMYNNETAGPAFEEFLDLLGQRVRLKGFSKYRAQLDNKTDSTGTHSLYTTYKDFELMFHVSTLLPYMPNNRQQLLRKRHIGNDIVTIVFQEPGALPFTPKNIRSHFQHVFVIVKVHNPCTENVCYSVGVFRSKDVPPFVPPIPKGVTFPRTGVFRDFLLAKGINAENAAHKSEKFRAMATRTRHEYLKDLAENFVTTTTVDTSAKFSFITLGAKK
